# Results deposited as PubChem BioAssay AID1224826 (NIAID, 2016)
# Test: 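Regulators of Tlr4 signalling leading to Tnf-alpha expression in macrophages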 (primary screen)
# Cell system: RAW264.7 G9 macrophages from mouse bearing reporters for p65 (GFP) and the Tnf promoter (mCherry)
# Reagent: siRNA pool against mouse genes, 100 nM
# Duration: 16 h of LPS stimulation, after 2 days of siRNA transfection
# Challenge: bacterial lipopolysaccharide (Salmonella minnesota R595), 10 ng/ml
# Measurement: 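Nuclear mCherry signal of the Tnf promoter reporter measured by imaging after background removal, scaled to each plate median and turned into robust z-scores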
# Reading the numbers: Tnf reporter robust z-score: higher = stronger Tnf promoter reporter signal after LPS; Tnf reporter intensity: higher = stronger Tnf promoter reporter signal
# Active means: 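a well counts as active at a score of -1.3 or below (Tlr4 knock-down control median) or above 3 (raised signal); controls and wells holding fewer than 50 cells are excluded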
# Calls: active = Tnf reporter clearly lowered or raised; inactive = no clear change in Tnf reporter
# In all, the deposit lists about 17,000 reagents; below is an unselected part. Over the whole deposit, about 1,110 (6.6%) are marked active. 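Active means lowered or raised reporter signal; replicate intensities are raw and not normalised per plate.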 The numbers tell different reagents against one gene apart. No sequences are given here.
The first 3 entries, to show the layout:
gene symbol,reagent no.,Tnf reporter robust z-score,fewer than 50 cells in well,"Tnf reporter intensity, replicate 1","Tnf reporter intensity, replicate 2",outcome
Npl,1,0.67,enough cells in well,268,154,inactive
Txndc16,1,-0.27,enough cells in well,131,161,inactive
Serpinb9f,1,,fewer than 50 cells per well; well left out of calls,97.1,64.1,inactive

The listing, from the first entry:
gene symbol,reagent no.,Tnf reporter robust z-score,fewer than 50 cells in well,"Tnf reporter intensity, replicate 1","Tnf reporter intensity, replicate 2",outcome
Npl,1,0.67,enough cells in well,268,154,inactive
Txndc16,1,-0.27,enough cells in well,131,161,inactive
Serpinb9f,1,,fewer than 50 cells per well; well left out of calls,97.1,64.1,inactive
Or4k47,1,0.33,enough cells in well,232,113,inactive
Slc25a15,1,0.01,enough cells in well,219,143,inactive
Ddb2,1,-0.2,enough cells in well,191,217,inactive
Cyth4,1,0.76,enough cells in well,321,231,inactive
Ssh1,1,,fewer than 50 cells per well; well left out of calls,119,57.3,inactive
Aldh3b2,1,1.07,enough cells in well,197,221,inactive
Mrgprb8,1,0.25,enough cells in well,276,98.6,inactive
Fam53c,1,,fewer than 50 cells per well; well left out of calls,145,59.4,inactive
Pals2,1,1.85,enough cells in well,311,282,inactive
Pals2,2,0.29,enough cells in well,202,142,inactive
Atosa,1,-0.83,enough cells in well,150,148,inactive
Tasor2,1,-1.37,enough cells in well,84.2,143,active
Or5b99,1,-1.69,enough cells in well,83.5,47.8,active
Klhl31,1,-0.02,enough cells in well,213,139,inactive
Klhl31,2,-1.19,enough cells in well,126,94.6,inactive
Zfp30,1,-0.67,enough cells in well,77.4,118,inactive
Foxf1,1,0.74,enough cells in well,374,246,inactive
Plac1,1,,fewer than 50 cells per well; well left out of calls,79.8,87.8,inactive
Akp3,1,1.95,enough cells in well,297,261,inactive
Etfa,1,-0.11,enough cells in well,246,194,inactive
Magea8,1,1.63,enough cells in well,287,233,inactive
